Assay results as given in PubChem BioAssay AID624297 (National Center for Advancing Translational Sciences (NCATS), 2012).
About 6,200 (1.8%) of roughly 340,000 compounds were called active. Inconclusive results, whose numbers are uncertain, are shown with a selection of clear calls. The call rests on the fitted dose curve; in most records, active means well fitted activation curve with a large enough effect; inconclusive means small, poorly fitted or top-dose-only effect; inactive means no such curve, though single readings can be large or run the other way. A potency beside an inconclusive call is a rough fit, not a confirmed value.
Potency means the concentration at half of the fitted maximal effect.

Assay: A quantitative high throughput screen for small molecules that induce DNA re-replication in SW480 colon adenocarcinoma cells. Further: nearly all actives have a fitted effect of over 55% in size. On re-replication activation: % of control where 0% means no effect.
Conditions: Hoechst DNA content imaging, 48 h; re-replication activation: at 46.1 µM (top of the series) unless noted
Summary of the method: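 Per well, 250 cells were exposed to pinned compound for 48 hr. Nuclear DNA was visualised with Hoechst (40 min, 37 C) and total object intensity recorded by fluorescence scanning.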
With `CCOc1ccc(-n2nc3c(=O)n(CCN4CCCCC4)nc(C)c3c2C)cc1` the Potency was active: 23.1 µM.
In the case of `CC(C#N)(NC(=O)CN1CCN(S(=O)(=O)c2ccccc2C#N)CC1)C1CC1` (stereo not given), the “re-replication activation” value is reported as inactive: -2.36%.
In the case of `CN1CCN(CCC(=O)Nc2ccccc2)CC1`, the re-replication activation is reported as inactive: -8.98% [at 9.22 µM].
In the case of `Cc1ccc(C)c(OCCCNCc2ccccc2)c1`, the “re-replication activation” value is reported as inactive: -4.86%.
With `COCCNC(=O)c1cc2c(-c3ccccc3F)nn(C)c2s1` the “re-replication activation” value was inactive: -5.54%.
With `CCCc1cc(C(=O)N2CCCC(C(=O)c3cc(C)c(OC)c(C)c3)C2)n(C)n1` (stereo not given) the “re-replication activation” value was inactive: 1.72%.
For `COc1ccc(-c2csc(/C(C#N)=C\c3ccc(O)c([N+](=O)[O-])c3)n2)cc1OC`, the “re-replication activation” value was inactive: -4.18%.
For `Cc1ccccc1C1CCCN(Cc2nc(C3CC3)no2)C1` (stereo not given), the Potency was inconclusive: 20.6 µM [activator, partial curve, poor fit].
For `O=C(Nc1nccs1)c1ccc(COc2ccc(Cl)cc2)o1`, the “re-replication activation” value was inactive: -3.49%.
In the case of `COc1ccc(C(=O)CSc2nnc(-c3ccc(C)cc3)o2)cc1`, the Potency is reported as inconclusive: 29.1 µM [activator, single point].
With `CCc1c(C)c2ccc(OC(C)C(=O)NC(Cc3c[nH]c4ccc(O)cc34)C(=O)O)c(C)c2oc1=O` (stereo not given) the “re-replication activation” value was inactive: -12%.
For `O=[N+]([O-])c1ccc(-c2cc(-c3ccc(Cl)cc3)n[nH]2)cc1`, the Potency was inconclusive: 29.1 µM [activator, single point].
With `COC(=O)c1cc(C(=O)OCC(=O)c2ccc[nH]2)cc([N+](=O)[O-])c1` the Potency was inconclusive: 29.1 µM [activator, single point].
With `CCn1c2ccc(OC)cc2c2nc3ccccc3nc21` the “re-replication activation” value was inactive: -3.54%.
In the case of `O=C(CCSc1ccc(Cl)cc1)c1cccs1`, the Potency is reported as inconclusive: 23.1 µM [activator, single point].
With `Cc1ccc(-c2cc(NC(=O)CCl)n(-c3ccccc3)n2)cc1` the Potency was inconclusive: 23.1 µM [activator, single point].
In the case of `O=[N+]([O-])c1cccc(-c2nn(-c3ccccc3)cc2CO)c1`, the Potency is reported as inconclusive: 23.1 µM [activator, single point].
In the case of `COc1cc(Nc2ccccc2Cl)c([N+](=O)[O-])nc1[N+](=O)[O-]`, the Potency is reported as active: 4.61 µM.
With `CN1CCN(c2ccccc2NC(=O)c2ccc(-c3cccc(Cl)c3)o2)CC1` the Potency was inconclusive: 29.1 µM [activator, single point].
With `OC(COc1ccccc1Br)CN1CCNCC1` (stereo not given) the Potency was inconclusive: 23.1 µM [activator, single point].
With `Cc1csc(=O)n1CCC(=O)OCC(=O)NNC(=O)c1ccccc1` the “re-replication activation” value was inactive: -10.1%.
In the case of `Cc1ccccc1Cc1c(C)nc2c(C(=O)NCc3ccco3)cnn2c1C`, the Potency is reported as inconclusive: 20.6 µM [activator, single point].
With `CCc1noc(C)c1C(=O)OCC(=O)N(CC)c1c(N)n(Cc2ccccc2)c(=O)[nH]c1=O` the Potency was inconclusive: 23.1 µM [activator, single point].
For `CC(Oc1ncnc2ccccc12)C(=O)Nc1cccc(S(=O)(=O)N2CCOCC2)c1` (stereo not given), the Potency was inconclusive: 18.4 µM [activator, single point].
For `CCOc1ccc(S(=O)(=O)N2CCC(C(=O)OC(C)C(=O)N(C)C3CCCCC3)CC2)cc1` (stereo not given), the “re-replication activation” value was inactive: 2.37%.
For `CCC(C)n1c(NC(=O)c2ccccc2)c(C#N)c2nc3ccccc3nc21` (stereo not given), the Potency was active: 5.17 µM.
For `O=C(C1CC(c2cccc(Br)c2)=NO1)N1CCc2ccccc2C1` (stereo not given), the Potency was inconclusive: 16.4 µM [activator, single point].
In the case of `Cc1cc(C)n2nc(C(=O)N3CCN(c4ccc([N+](=O)[O-])cc4)CC3)nc2n1`, the Potency is reported as inconclusive: 29.1 µM [activator, single point].
In the case of `CC[C@]1(C(=O)OC)[C@H]2C(=O)N(Cc3ccccc3)C(=O)[C@H]2[C@H]2CN(C)C(=NCc3ccccc3)N21`, the “re-replication activation” value is reported as inactive: -28.9%.
In the case of `CS(=O)(=O)Nc1cccc(C2=NN(C(=O)c3ccccc3)C(c3cccs3)C2)c1` (stereo not given), the “re-replication activation” value is reported as inactive: 1.33%.
In the case of `CCN(c1ccccc1)S(=O)(=O)c1ccc(Cl)c(NC(=O)Nc2ccc(Cl)cc2C#N)c1`, the Potency is reported as inconclusive: 18.4 µM [activator, partial curve, poor fit].
In the case of `CCC(=O)Oc1ccc(C(=O)Nc2ccc([N+](=O)[O-])cc2)cc1`, the Potency is reported as inconclusive: 4.61 µM [activator, single point].
In the case of `COc1cc2c(cc1OC)[C@H](C)N(C(=O)NCc1ccccc1)CC2`, the Potency is reported as inconclusive: 29.1 µM [activator, single point].
For `COc1cccc(CN(C)C(=O)Cn2cc(C)c(=O)[nH]c2=O)c1`, the Potency was inconclusive: 10.3 µM [activator, single point].
For `CC(C)Cc1nnc(NC(=O)CCC(=O)N2CCN(c3ccccc3)CC2)s1`, the “re-replication activation” value was inactive: -4.28%.
For `O=c1[nH]c2ccccc2nc1/C=C/c1ccccc1`, the Potency was inconclusive: 5.17 µM [activator, full curve, poor fit].
In the case of `COc1cc(N=C2C(=O)N3c4c(cccc42)C(C)=CC3(C)C)cc(OC)c1`, the Potency is reported as active: 20.6 µM.
With `COCCN(CCOC)Cc1c(C)[nH]c2c(C)c(C)ccc2c1=O` the Potency was inconclusive: 6.51 µM [activator, single point].
For `COCCNC(=O)C(OC(=O)CC1Sc2ccccc2NC1=O)c1ccncc1` (stereo not given), the Potency was active: 3.66 µM.
In the case of `Cc1ccc(OCC(O)CN2CCN(c3ccc(C)cc3)CC2)cc1` (stereo not given), the “re-replication activation” value is reported as inactive: -20.6%.
For `CCOc1ccccc1N(C(=O)CNS(=O)(=O)c1ccccc1)C(CC)C(=O)NCc1ccco1` (stereo not given), the Potency was inconclusive: 20.6 µM [activator, partial curve, poor fit].
For `C=CCNc1ncnc2c1ncn2C1OC(CO)C(O)C1O` (stereo not given), the Potency was inconclusive: 20.6 µM [activator, partial curve, poor fit].
With `COc1cccc(C(=O)Oc2ccc3ccc(=O)oc3c2)c1` the Potency was inconclusive: 1.64 µM [activator, single point].
In the case of `CCN1CCN(c2cc(C)c3cc(NC(=O)c4ccc5c(c4)OCO5)ccc3n2)CC1`, the Potency is reported as inconclusive: 18.4 µM [activator, partial curve, poor fit].
For `COc1cccc(-c2ccc3ncnc(NCc4cccs4)c3c2)c1`, the Potency was inconclusive: 29.1 µM [activator, single point].
In the case of `CCC(CC)c1nnc(NC(=O)COc2ccc3c(c2)OCO3)s1`, the Potency is reported as inconclusive: 16.4 µM [activator, single point].
In the case of `Cc1c(F)c(N2CCNC(C)C2)cc2c1c(=O)c(C(=O)O)cn2C1CC1` (stereo not given), the “re-replication activation” value is reported as inactive: 4.87%.
For `Cc1cc(C)c(NC(=O)CC(=O)c2ccccc2)c(Cl)c1`, the “re-replication activation” value was inactive: 10.1%.
For `O=C(Cc1ccc([N+](=O)[O-])cc1)N1N=C(c2ccncc2)CC1(O)C(F)(F)F` (stereo not given), the “re-replication activation” value was inactive: -64.2%.
For `Cc1ccc(C)c(NC(=O)CN(C)C(=O)c2ccncc2)c1`, the Potency was inconclusive: 20.6 µM [activator, single point].
In the case of `O=c1cc(C(F)(F)F)[nH]c2c(OC(F)(F)F)cccc12`, the Potency is reported as inconclusive: 29.1 µM [activator, partial curve, poor fit].
With `CCN(Cc1ccccc1)C(=O)CN1C(=O)COc2ccc(S(=O)(=O)NC3CCCC3)cc21` the Potency was inconclusive: 29.1 µM [activator, single point].
With `COC(=O)c1ccccc1S(=O)(=O)N1CCC(C(=O)N(C)CCOc2ccccc2)CC1` the “re-replication activation” value was inactive: -2.18%.
With `Cc1oc(=O)oc1CN1CCN(c2cc3c(cc2F)c(=O)c(C(=O)O)c2n3C(C)S2)CC1` (stereo not given) the “re-replication activation” value was inactive: 18.5%.
For `C/C=C(\C)C(=O)NCCN1C2=NC[C@H](Cc3ccccc3)N2C[C@@H]1Cc1ccc(OC)cc1`, the “re-replication activation” value was inactive: -4.87%.
For `CCOc1ccc2nc(NC(=O)CN3CCN(C)CC3)sc2c1`, the Potency was inconclusive: 23.1 µM [activator, single point].
In the case of `O=C(NCc1ccccc1F)c1cccc(S(=O)(=O)N2CCCCC2)c1`, the “re-replication activation” value is reported as inactive: 15.3%.
With `COc1cccc(CNC[C@H]2O[C@@H](n3cnc(C(N)=O)n3)[C@H](O)[C@@H]2O)c1OCc1ccc(F)cc1Cl` the Potency was inconclusive: 0.92 µM [activator, partial curve, poor fit].
For `Cc1nnc(N2C(=O)c3cccc4c([N+](=O)[O-])ccc(c34)C2=O)s1`, the Potency was inconclusive: 18.4 µM [activator, single point].
With `Cc1ccc(C)c(N(CC(=O)NC(C)C)C(=O)CCC(=O)Nc2ccccn2)c1` the Potency was inconclusive: 29.1 µM [activator, single point].
In the case of `CCOc1ccc(NC(=O)c2cc3ccccc3cc2OC)cc1`, the Potency is reported as inconclusive: 20.6 µM [activator, single point].
In the case of `O=C(c1ccc2c(c1)OCO2)N1CCC2(CC1)Oc1ccc(F)cc1C(=O)C21CC(c2cccnc2)=NO1` (stereo not given), the Potency is reported as inconclusive: 2.91 µM [activator, full curve, poor fit].
In the case of `COC(=O)CCC(=O)OC1(C)C(=O)C=C2C=C(C3CC3)N(CCCOC(C)C)C=C2C1=O` (stereo not given), the “re-replication activation” value is reported as inactive: -1.04%.
For `CCOc1ccc(/C=C/C(=O)Nc2cccc(C(C)=O)c2)cc1`, the Potency was inconclusive: 25.9 µM [activator, single point].
With `CC(CC(=O)OCC(=O)NC1CCS(=O)(=O)C1)c1ccccc1` (stereo not given) the “re-replication activation” value was inactive: 19.7%.
For `O=C(ONC(=O)C1C2C=CC(C2)C1C(=O)NOC(=O)c1ccccc1)c1ccccc1` (stereo not given), the Potency was inconclusive: 23.1 µM [activator, single point].
For `O=C(Nc1nnc2n1CCS2)c1ccco1`, the “re-replication activation” value was inactive: -3.28%.
For `Cc1ccc(NP(=O)(c2ccc(N(C)C)cc2NC(=O)c2cccs2)N2CCOCC2)cc1Cl` (stereo not given), the Potency was inconclusive: 29.1 µM [activator, partial curve, poor fit].
In the case of `CCOC(=O)C1(CCOC)CCN(Cc2cc3ccccc3s2)CC1`, the Potency is reported as inconclusive: 29.1 µM [activator, single point].
In the case of `CCOC(=O)N1CCC(N2CCCC(C(=O)c3cccc(OC(C)C)c3)C2)CC1` (stereo not given), the “re-replication activation” value is reported as inactive: -13.1%.
